From patent US8784911B2, “Compositions for treatment and prevention of diabetic complications using Osteomeles schwerinae” (Korea Institute of Oriental Medicine, priority 2009, dated 2014)
At least one compound was matched to its structure with a doubt left.

What was measured:
[1] = system: advanced glycation endproduct generation (bovine serum albumin with fructose and glucose); experiment: In vitro inhibitory effect on advanced glycation endproduct generation (BSA + fructose/glucose, fluorescence); format: biochemical; settings: compounds isolated from Osteomeles schwerinae extract
Method: Inhibitory effect of Osteomeles schwerinae small twig/leaf extract, fractions thereof obtained from each of hexane layer, ethyl acetate layer, butanol layer and water layer of the extract, and Osteomeles schwerinae seed extract on advanced glycation endproduct generation was investigated in vitro. Bovine serum albumin (BSA, Sigma, USA) was used as a protein source. BSA was added to 50 mM phosphate buffer (pH 7.4) at the concentration of 10 mg/ml. As a sugar source, the mixed solution of 0.2 M fructose and 0.2 M glucose was used. The mixed solution of fructose and glucose was added to the BSA solution. Osteomeles schwerinae small twig/leaf extract was prepared at different concentrations of 5 μg/ml, 10 μg/ml and 25 μg/ml. […] 14 or 28 days later, the content of advanced glycation endproducts generated in each culture solution was measured and compared. […] The amount of AGEs having the said properties was measured with microplate reader (Excitation: 350 nm, Emission: 450 nm) to analyze the inhibitory effect on the generation of AGEs (Vinson, J. A. et al., J. Nutr. Biochem., 7: 659-663, 1996).
Inhibitory rate of generation was calculated by the following formula. Inhibitory rate of generation(%)=100−(fluorescence intensity of experimental group sample−fluorescence intensity of empty sample)/(fluorescence intensity of control group sample−fluorescence intensity of control group empty sample)×100 […]

aldose reductase = target: T1, aldose reductase (Rattus norvegicus, UniProt P07943); experiment: In vitro inhibitory effect on aldose reductase activity; format: biochemical, SD rat; settings: compounds isolated from Osteomeles schwerinae extract
T1 construct: To obtain natural aldose reductase from eyeballs of SD rat; from tissue; host or cells: lens of Sprague-Dawley rat (homogenate supernatant)

SMILES: C[C@@H]1O[C@@H](Oc2c(-c3ccc(O)c(O)c3)oc3cc(O)cc(O)c3c2=O)[C@H](O)[C@H](O)[C@H]1O [quercitrin]
- inhibition of advanced glycation endproduct generation [1]: confirmed to inhibit
- inhibition of aldose reductase activity (aldose reductase): confirmed to inhibit
